For this assay, the target named is T1, recombinant zebrafish Endouc fused with Flag tag (Endouc-Flag), produced in Sf21 insect cells (zebrafish) (UniProt Q1LUM3).
T1 sequence: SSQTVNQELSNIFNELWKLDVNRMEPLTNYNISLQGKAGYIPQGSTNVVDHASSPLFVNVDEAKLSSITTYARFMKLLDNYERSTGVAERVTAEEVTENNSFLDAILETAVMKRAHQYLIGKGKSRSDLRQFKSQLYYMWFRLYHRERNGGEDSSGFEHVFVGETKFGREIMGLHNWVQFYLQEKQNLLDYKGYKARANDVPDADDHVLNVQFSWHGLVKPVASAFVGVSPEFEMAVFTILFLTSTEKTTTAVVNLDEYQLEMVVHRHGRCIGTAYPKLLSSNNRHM
The assay is described as follows: affinity purification with mass spectrometry; Endouc-Flag produced in Sf21 mixed with whole protein extracts of HEK293T cells in IP lysis buffer, anti-FLAG M2-agarose beads overnight, 6 washes, elution with 0.5 mg/mL 3xFlag peptide at 4°C, SDS-PAGE, gel slices, LC-MS/MS; pull-down without Endouc-Flag as negative control.

The chains behind the UniProt entries cited, without tags or fusion partners.
UniProt Q13242: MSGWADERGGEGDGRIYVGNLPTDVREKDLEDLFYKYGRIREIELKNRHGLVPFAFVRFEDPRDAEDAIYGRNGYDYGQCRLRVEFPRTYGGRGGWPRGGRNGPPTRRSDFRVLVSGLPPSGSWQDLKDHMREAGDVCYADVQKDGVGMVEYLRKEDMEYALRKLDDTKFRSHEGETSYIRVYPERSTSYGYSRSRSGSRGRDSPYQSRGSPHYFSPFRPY

No constants are given. Whether binding was seen depends on the method and setting. Binding seen in cells or lysates may run through a third protein. Here binding means that the protein was enriched with, or labelled near, the bait; the list need not be complete. Sequences can lack the tags named with a protein.

Binding data for one substance are collected here from publication PMC13049129.

Regarding “Srsf9, endogenous in HEK293T total lysate (from UniProt Q13242 1-221)”, the binding entry is “binds”.
